# At least one structure is not confirmed: it was looked up by name or label, or the drawing left a doubt.
# By UniProt entry, the sequences of proteins in these tests, tags left out. Where a name states a change or a piece, a line headed by the entry shows the natural chain unless it says otherwise.
# UniProt P12880: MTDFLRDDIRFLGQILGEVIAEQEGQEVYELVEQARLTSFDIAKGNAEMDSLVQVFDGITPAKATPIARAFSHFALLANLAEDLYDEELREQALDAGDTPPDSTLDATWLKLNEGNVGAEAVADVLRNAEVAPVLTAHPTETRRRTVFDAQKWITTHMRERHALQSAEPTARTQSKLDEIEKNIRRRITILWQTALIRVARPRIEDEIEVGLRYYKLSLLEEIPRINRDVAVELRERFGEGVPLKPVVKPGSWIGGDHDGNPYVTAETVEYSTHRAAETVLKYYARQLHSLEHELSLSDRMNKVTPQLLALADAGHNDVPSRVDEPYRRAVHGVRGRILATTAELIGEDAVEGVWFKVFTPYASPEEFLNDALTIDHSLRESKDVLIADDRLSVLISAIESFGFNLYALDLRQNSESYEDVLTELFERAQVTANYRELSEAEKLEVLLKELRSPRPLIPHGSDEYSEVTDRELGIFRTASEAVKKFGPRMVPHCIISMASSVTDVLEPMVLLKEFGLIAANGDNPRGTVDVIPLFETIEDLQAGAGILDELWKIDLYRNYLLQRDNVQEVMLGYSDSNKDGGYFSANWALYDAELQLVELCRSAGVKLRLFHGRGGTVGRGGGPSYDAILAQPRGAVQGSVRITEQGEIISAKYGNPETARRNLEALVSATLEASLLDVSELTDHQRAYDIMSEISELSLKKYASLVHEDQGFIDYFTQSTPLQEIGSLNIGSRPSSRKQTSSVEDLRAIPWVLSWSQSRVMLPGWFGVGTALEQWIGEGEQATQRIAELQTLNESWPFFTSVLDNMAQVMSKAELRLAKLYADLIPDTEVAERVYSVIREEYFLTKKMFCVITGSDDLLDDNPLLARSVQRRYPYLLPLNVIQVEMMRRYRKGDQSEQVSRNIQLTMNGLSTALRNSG
# Target: T1, phosphoenol pyruvate carboxylase (PEPC) of ATCC 21253 (Corynebacterium glutamicum, UniProt P12880)
# T1 construct: assays were performed with permeabilized cells; endogenous in cells; host or cells: Corynebacterium glutamicum ATCC 21253, CTAB-permeabilized cells
# Assay: Aspartate inhibition of phosphoenol pyruvate carboxylase activity
# Type: biochemical
# Details: 5 mM aspartate
smiles,measurement,value
N[C@@H](CC(=O)O)C(=O)O [aspartate],inhibition of PEPC by aspartate,completely inhibited

# Reference: patent US6965021B2, “Feedback-resistant pyruvate carboxylase gene from corynebacterium” (Archer-Daniels-Midland Company, priority 2000, dated 2005)
